Experimental data: patent publication CN102146137A
Results are given in words; binding and its absence hold for the method and conditions named. Some results given as binding are weak or reduced against the parent protein; the word gives no strength.

By UniProt entry, the sequences of proteins in these tests, tags left out. Residues count along the entry.
UniProt P05067, residues 672-713: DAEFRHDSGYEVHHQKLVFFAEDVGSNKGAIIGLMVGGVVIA

Biological target: Aβ1-42多肽 (UniProt P05067)
Assay: ELISA screen of hybridoma clones

B1: 抗Aβ1-42鼠源单抗mZ1 (antibody, IgG1, V domains shown)
VH: EVKLVESGGGLVQPGGSLRLSCATSGFTFSDYYMNWVRQPPGKALEWMAFIRNRANGYSTEYSASVRGRFTISRDNSQNILYLQMNTLRVEDSATYYCTRMGPRGFDYWGQGTTLTVSS
VL: DVQMTQSTSSLSASLGDRVTISCRASQDISNYLNWYQQKPDGTVKLLIYYTSRLHSGVPSRFSGSGSGTDYSLTISNLQQGDIATYFCQQGHSLPRTFGGGTKLEIT
binding: binds
